Reference: paper PMC11315385
No constants are given. Whether binding was seen depends on the method and setting. In cells and extracts the contact can be indirect. Some results given as binding are weak or reduced against the parent protein; the word gives no strength.

Chains of the proteins cited; added tags and fusions are not shown.
UniProt Q9Y5K5: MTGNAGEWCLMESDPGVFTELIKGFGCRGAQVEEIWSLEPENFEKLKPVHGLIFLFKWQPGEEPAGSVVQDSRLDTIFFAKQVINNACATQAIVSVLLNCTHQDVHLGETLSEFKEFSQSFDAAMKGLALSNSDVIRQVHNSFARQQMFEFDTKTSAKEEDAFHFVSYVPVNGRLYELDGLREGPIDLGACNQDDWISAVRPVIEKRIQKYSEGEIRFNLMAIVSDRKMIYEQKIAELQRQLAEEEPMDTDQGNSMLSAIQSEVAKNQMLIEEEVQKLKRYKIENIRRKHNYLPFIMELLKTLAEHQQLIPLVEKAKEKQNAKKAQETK

Molecular target: Ubiquitin C-terminal hydrolase-L5 (human (endogenous in CAOV3)) (UniProt Q9Y5K5)
Experiment: co-IP; CAOV3 cells lysed in IP-lysis buffer; supernatant incubated overnight with specific antibodies at 4°C, then protein A/G beads for 3 h; captured proteins analysed by western blotting

- binding: binds
B1: Annexin A8 (protein, UniProt P13928 1-327)
chain: MAWWKSWIEQEGVTVKSSSHFNPDPDAETLYKAMKGIGTNEQAIIDVLTKRSNTQRQQIAKSFKAQFGKDLTETLKSELSGKFERLIVALMYPPYRYEAKELHDAMKGLGTKEGVIIEILASRTKNQLREIMKAYEEDYGSSLEEDIQADTSGYLERILVCLLQGSRDDVSSFVDPGLALQDAQDLYAAGEKIRGTDEMKFITILCTRSATHLLRVFEEYEKIANKSIEDSIKSETHGSLEEAMLTVVKCTQNLHSYFAERLYYAMKGAGTRDGTLIRNIVSRSEIDLNLIKCHFKKMYGKTLSSMIMEDTSGDYKNALLSLVGSDP
